# Experimental data reported in article PMC7819943, “Rice protein-binding microarrays: a tool to detect cis-acting elements near promoter regions in rice”.
# Protein sequences, listed by entry. Tags and fused reporters are not part of them.
# UniProt Q0JBA9, entry or part of it: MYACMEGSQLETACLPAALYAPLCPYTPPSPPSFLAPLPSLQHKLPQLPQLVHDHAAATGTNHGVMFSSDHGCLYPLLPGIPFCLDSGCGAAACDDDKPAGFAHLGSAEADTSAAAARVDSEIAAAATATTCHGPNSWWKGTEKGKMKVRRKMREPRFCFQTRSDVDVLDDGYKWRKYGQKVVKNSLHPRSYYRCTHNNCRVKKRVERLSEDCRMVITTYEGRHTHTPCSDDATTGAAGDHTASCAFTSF
# This is one part of the list.
# Target: OsWRKY34 (Oryza sativa, UniProt Q0JBA9 1-250)
# Test: protein-binding microarray (RPBM); PBS, 2% BSA, 51.3 ng/ul salmon testes DNA, 50 uM zinc acetate, 200 nM TF, 25 C, 1 h; high values mean tight binding
# Details: protein: recombinant; tags: N-terminal polyhistidine and DsRed monomer fusion (pET32a); label: CyDye5-dUTP incorporated in the synthesized complementary strand; 3' TTTTT single-stranded linker to array surface; dsDNA, one strand shown
# Method in brief: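 Per-feature fluorescence intensity (arbitrary units), read on an Axon 4000B scanner, is the binding signal. Transcription factors carrying an N-terminal polyhistidine tag and DsRed fusion were expressed in E. coli BL21-CodonPlus and purified on Ni–NTA. A custom Agilent array, made double-stranded by primer extension with Cy5-dUTP and blocked with 2% BSA, was incubated with 200 nM protein in PBS, 2% BSA, salmon testes DNA and 50 µM zinc acetate at 25 °C for 1 h and then washed.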
row,Sequence,binding signal
1,ATTTACTCAGTCCAGAACCTTCGGCTAGCTGCTTGTTCTTCGGAGTCACCTAGTGCAG,8900 fluorescence intensity (a.u.)
2,CACTGAAACAAAACCTGATTTGTCAATTGTCATGTACTCACGGAGTCACCTAGTGCAG,8680 fluorescence intensity (a.u.)
3,CCGGAACACTCACCGCGCGGTTCCTCCAGACATCAACCACCGGAGTCACCTAGTGCAG,8490 fluorescence intensity (a.u.)
4,CTCTCCGGGCCCCACCTGTCGCCCTGGGCCCGCATGTCATCGGAGTCACCTAGTGCAG,9020 fluorescence intensity (a.u.)
5,CCAGATCCCGGATAGGCTCGCGTTTCTTGATTCGATGGTTCGGAGTCACCTAGTGCAG,8640 fluorescence intensity (a.u.)
6,AGATGTTGGTGACCTGGTGCGGGCGGCGGCGGCGGGAAATCGGAGTCACCTAGTGCAG,8860 fluorescence intensity (a.u.)
7,TTACGTGACGCTATGCTGGTTACACCACCCTTTCATCTACCGGAGTCACCTAGTGCAG,8640 fluorescence intensity (a.u.)
8,TGACAACCTCTCATACTTGTCTCTCTCGCGCACTTCCACCCGGAGTCACCTAGTGCAG,8080 fluorescence intensity (a.u.)
9,CACCTATCGTACACACTGTGTCTTGGAGTTCGTGTTACAGCGGAGTCACCTAGTGCAG,8120 fluorescence intensity (a.u.)
10,TGCCCACGTGTCCGGCCCAATTAATTTCGTGAACCTTTGACGGAGTCACCTAGTGCAG,12600 fluorescence intensity (a.u.)
11,GCGAGCGCCATCGATTGATCACTTTCAGGCCATTGGATCCCGGAGTCACCTAGTGCAG,10000 fluorescence intensity (a.u.)
12,CTCTCTCTCCTAGAACCACCATTCAACCACTGTTTTCTCTCGGAGTCACCTAGTGCAG,12200 fluorescence intensity (a.u.)
13,CCAACTCCGAACGCCTCTTCTTCTCCTCACCGCCGCCGAACGGAGTCACCTAGTGCAG,9650 fluorescence intensity (a.u.)
14,TTTTTGCAGCGAGGTCCCTCAGGTTGCGTGGTATTTGCGTCGGAGTCACCTAGTGCAG,8120 fluorescence intensity (a.u.)
15,TGCCCGGCTTGTTGCGCCTAACATTGTCATGAACCAGTACCGGAGTCACCTAGTGCAG,8950 fluorescence intensity (a.u.)
16,GCCACTCATCGCCACCGCCGCCGCCTTTCTCTCATCCCAACGGAGTCACCTAGTGCAG,8600 fluorescence intensity (a.u.)
17,TCGCTTGTGGTAGGTGTTGGGCACTTGGGGTTTGAAAGACCGGAGTCACCTAGTGCAG,15800 fluorescence intensity (a.u.)
18,CTTTGCATCTCTTCTTTTCTTTCTTTTTTTTTTCTTTTCTCGGAGTCACCTAGTGCAG,12100 fluorescence intensity (a.u.)
19,CCGGTCCGCGAGCGCGCTTGCTTCTTCTTCTCTATATATGCGGAGTCACCTAGTGCAG,13100 fluorescence intensity (a.u.)
20,GTTTCTTGTCCCGTGTAGGAAAAATGCACTTCATTTCATCCGGAGTCACCTAGTGCAG,8250 fluorescence intensity (a.u.)
21,TTTATGAAACTTTTAGGTTAGGTTTCATGGGTTTTCACTTCGGAGTCACCTAGTGCAG,9210 fluorescence intensity (a.u.)
22,TGTGGATTGGTTTGGGGTGGATGCAGGCTGAGTAAAATAACGGAGTCACCTAGTGCAG,14300 fluorescence intensity (a.u.)
23,ATCTTCGGGGTGGGTTACACATGCACAATTAACACGCTAGCGGAGTCACCTAGTGCAG,12200 fluorescence intensity (a.u.)
24,TACGTTCATTTGATCATTTCATCTATTAGCATCGATTCTACGGAGTCACCTAGTGCAG,10700 fluorescence intensity (a.u.)
25,ATCCGTGTTCTGTTCTTCTTGCGGAGCAAGCCTGCATTCCCGGAGTCACCTAGTGCAG,8220 fluorescence intensity (a.u.)
26,GCTCCGCGCGCCGCCTGCCTCTCGGTCGACAGCACAGTAACGGAGTCACCTAGTGCAG,8610 fluorescence intensity (a.u.)
27,TTACCAAACTGAAAATAAAAATGTGTGTTTTTTTTAATATCGGAGTCACCTAGTGCAG,9410 fluorescence intensity (a.u.)

row,Sequence,binding signal
1,CTTCTCCTCTAGTCTGTGGTTGGCTGGCGATGGTGGCTTGCGGAGTCACCTAGTGCAG,8820 fluorescence intensity (a.u.)
2,GCAATGTAATTTTAATACAAATGTGCTGTAAATTAAATCACGGAGTCACCTAGTGCAG,8930 fluorescence intensity (a.u.)
3,CCTAGTTCGAAACTTCACCCCTTCTAATTATTTGATATTACGGAGTCACCTAGTGCAG,8160 fluorescence intensity (a.u.)
4,GCTCGCTGACTGCGCCGAGTTTTATTCCCTACCGCCGCTCCGGAGTCACCTAGTGCAG,9380 fluorescence intensity (a.u.)
5,CTGCCTACCTCTATACCTGCTATCTCCGTTCGATCCGGGTCGGAGTCACCTAGTGCAG,8500 fluorescence intensity (a.u.)
6,ACGTCAGAGGATCCCTTTCCCCTAAATAGGTCTTATACTGCGGAGTCACCTAGTGCAG,8540 fluorescence intensity (a.u.)
7,GCTAATTTGGGACATCTCAATCTCTCTTCCAATGGTTTTGCGGAGTCACCTAGTGCAG,8700 fluorescence intensity (a.u.)
8,CAGTATGCCACTTCCACTGTCCAACCTTGTCTTGTTAAGACGGAGTCACCTAGTGCAG,10300 fluorescence intensity (a.u.)
9,GGCCTGTTTGGTAGTGTTTTCGGAACGCTTTGATGATTTACGGAGTCACCTAGTGCAG,9540 fluorescence intensity (a.u.)
10,AAAATTCGATAGGTTTTTACTAATTCTCTACCTTTTCTATCGGAGTCACCTAGTGCAG,11100 fluorescence intensity (a.u.)
11,TAGGGTCATGGTTTAGATTTCGATCACATTTGAGGGTCACCGGAGTCACCTAGTGCAG,8700 fluorescence intensity (a.u.)
12,ATTCTTTTCTCAATCAATAACAACTCTCCACCATTTAATTCGGAGTCACCTAGTGCAG,8170 fluorescence intensity (a.u.)
13,CATACTTGGTTTTGATATACTGGGCTTTTCATGGACACTACGGAGTCACCTAGTGCAG,8030 fluorescence intensity (a.u.)
14,AAACGGCGCAATCTGTGTAATTAGTTATTTTTTCGTCTATCGGAGTCACCTAGTGCAG,8140 fluorescence intensity (a.u.)
15,TCATGCATACACATTATGATTAGCACTTTCCATTTTCTATCGGAGTCACCTAGTGCAG,8160 fluorescence intensity (a.u.)
16,CGTCGTCGTGTACCACGTCCTCCACCGCCGGCTTCCCGCGCGGAGTCACCTAGTGCAG,14100 fluorescence intensity (a.u.)
17,GACGAATGGTCAAACGTTGGATAAAAAGTCAACGGCGTCACGGAGTCACCTAGTGCAG,12000 fluorescence intensity (a.u.)
18,TACACGAACACGATCAATCACCTGATTCCTTCAACTGTTTCGGAGTCACCTAGTGCAG,10200 fluorescence intensity (a.u.)
19,GGTATACGTTTGACCATTCGTCTTATTCAAAAAATTTATGCGGAGTCACCTAGTGCAG,10200 fluorescence intensity (a.u.)
20,AAAGGACCAGTCGTCTTATTTCTAGCCACTTACCTCCTAACGGAGTCACCTAGTGCAG,10500 fluorescence intensity (a.u.)
21,GCACCTCTTGTATCATCAGGTGCACAAGCTGTGCCAAAAACGGAGTCACCTAGTGCAG,9420 fluorescence intensity (a.u.)
22,AGGGTAATAACCCAGCCTGTGTTGTGTGTGTTGGTTTAGACGGAGTCACCTAGTGCAG,9660 fluorescence intensity (a.u.)
23,GAATTTCGTTCTGTTTCACCATTCATCTCGAATATTTCCACGGAGTCACCTAGTGCAG,12000 fluorescence intensity (a.u.)
24,GCCGCTTCCGCTTGCGTGCCCTCGTCGCCGTCGAATCGCTCGGAGTCACCTAGTGCAG,10000 fluorescence intensity (a.u.)
25,GGGGCTGGGGCACATAACCAACACTGCACAATGAGTCTTGCGGAGTCACCTAGTGCAG,9070 fluorescence intensity (a.u.)
26,AAATGGTTTTGGTCTAGGGATCGTGCTTAGCTATTGGTGGCGGAGTCACCTAGTGCAG,8080 fluorescence intensity (a.u.)
27,TGTGTGTGTTAACTTAATTCCTGTCAGCAACATTTCCTTTCGGAGTCACCTAGTGCAG,8820 fluorescence intensity (a.u.)

# 3 entries from above, as tab-separated lines:
row	Sequence	binding signal
8	CAGTATGCCACTTCCACTGTCCAACCTTGTCTTGTTAAGACGGAGTCACCTAGTGCAG	10300 fluorescence intensity (a.u.)
9	GGCCTGTTTGGTAGTGTTTTCGGAACGCTTTGATGATTTACGGAGTCACCTAGTGCAG	9540 fluorescence intensity (a.u.)
10	AAAATTCGATAGGTTTTTACTAATTCTCTACCTTTTCTATCGGAGTCACCTAGTGCAG	11100 fluorescence intensity (a.u.)
